Data as given in PubChem BioAssay AID1053208 (Peter MacCallum Cancer Centre, 2014).

Aim: 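Find knock-downs that sensitise mouse osteosarcoma cells to doxorubicin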 (primary screen)
Cell system: mouse osteosarcoma cells, early-passage culture from an engineered mouse model of fibroblastic bone tumour
Knock-down reagent: siRNA pool against mouse genes, 40 nM
Timing: about 120 h (48 h before drug, then 72 h with drug)
Conditions: doxorubicin 100 nM for 72 h, roughly 30-40% inhibitory dose
Read-out: 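Luminescent ATP signal taken as viability with or without 100 nM doxorubicin for 72 h; mean of two wells set against non-targeting siRNA and turned into robust z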
Direction: viability z-score with doxorubicin: higher = more viable cells under doxorubicin; viability z-score without drug: higher = more viable cells with knock-down alone
Rule for the call: 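a pool counts as active when its viability z-score with doxorubicin is -2 or below and its z-score without drug lies between -2 and 2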
The whole screen tested about 17,000 reagents; this is a part drawn at random. 788 of all reagents (4.7%) were called active. 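Calls rest on z-score classes alone; an extra cut-off of viability at most 70% of control was not applied to them.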 Entries without a mark were called inactive. Not all columns of the deposit are shown. Reagent sequences are not shown.

target gene | PubChem SID | combined z-score class | viability z-score with doxorubicin | viability z-score without drug
Rundc3b | SID152272524 | no change with or without drug | -0.79 | -0.17
Pde6a | SID152289254 | no change with or without drug | -0.56 | -1.18
2900026A02Rik | SID152306381 | no change with or without drug | 0.67 | 0
Kalrn | SID152331080 | no change with or without drug | 0.56 | 0.84
Sdcbp | SID152284830 | high cell count with doxorubicin only | 3.26 | 1.85
Tmem150b | SID152326523 | no change with or without drug | -1.57 | 0.34
Aff2 | SID152341443 | no change with or without drug | -0.9 | -0.17
Kctd20 | SID152290224 | no change with or without drug | -1.12 | 0.34
Birc5 | SID152274961 | low cell count with and without drug | -2.25 | -2.87
Tescl | SID152298653 | no change with or without drug | -0.34 | -0.84
Ncaph | SID152332468 | no change with or without drug | -0.79 | -0.84
Fzd9 | SID152312998 | no change with or without drug | 0 | -1.01
Tasor2 | SID152308852 | no change with or without drug | 0.45 | 0.17
Tmprss11f | SID152314653 | no change with or without drug | 0.9 | 0.67
Zfyve26 | SID152323846 | no change with or without drug | -0.34 | 0.51
Cdkn2c | SID152317500 | no change with or without drug | -0.11 | 0
Mtag2 | SID152292291 | no change with or without drug | -0.22 | -0.17
Spire2 | SID152267597 | high cell count with doxorubicin only | 2.02 | 0.84
Zfp451 | SID152262711 | no change with or without drug | -0.9 | 1.01
Pabpn1 | SID152278876 | no change with or without drug | -0.34 | -1.18
Tle5 | SID152321284 | no change with or without drug | -0.67 | -0.17
Nudt13 | SID152332804 | no change with or without drug | -1.35 | -1.18
Zfp790 | SID152271684 | no change with or without drug | 0.45 | 0.17
Hoxc6 | SID152261806 | no change with or without drug | 0.11 | -0.51
Cfap20dc | SID152334983 | no change with or without drug | -0.67 | 1.18
Vmn1r75 | SID152266728 | no change with or without drug | 0.56 | 0.51
Mphosph9 | SID152275970 | no change with or without drug | 0 | 1.18
Fgf10 | SID152309343 | no change with or without drug | -1.46 | 0.34
Bnc1 | SID152330176 | low cell count with doxorubicin only (active) | -2.59 | -0.51
Casp8 | SID152331948 | no change with or without drug | 0.34 | 0.84
Krt7 | SID152324033 | no change with or without drug | -0.45 | 0.67
Dhx38 | SID152267992 | no change with or without drug | 0.45 | 0.67
Ift88 | SID152274353 | low cell count with and without drug | -2.36 | -2.19
Ftsj3 | SID152315090 | no change with or without drug | 0 | 0.67
